Usually AC50 stands for the concentration giving half of the maximal activity seen.

The structures appear in SMILES notation. Where “and” joins values, the source holds several entries; their conditions need not be identical. Equal entries are not always repeated. Some of the results follow. Shown are side measurements of this screen, not its main read-out; they come without a call. Most of these compounds were active or inconclusive in the main read-out, so they are no random draw. The note in brackets gives the kind of curve behind each potency; many fits are weak.

This test can be described thus: Cell signaling CRE-BLA (Fsk stim). Conditions: CHO CRE-bla reporter (cAMP response element driving beta-lactamase), forskolin EC10, beta-lactamase ratio; measured here: 460 nm blue channel. In a few lines: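 Forskolin analogue NKH 477 at EC10 stimulated CRE-driven beta-lactamase in CHO cells alongside compound dilution series. Beta-lactamase was measured with CCF4, excitation 405 nm, emission ratio 460/530 nm.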
Take `COc1cc2nc(N3CCN(C(=O)[C@H]4COc5ccccc5O4)CC3)nc(N)c2cc1OC`: the AC50 is 31.6 µM [rising, single point].
Regarding `CCOC(=O)C1=C(CNCCc2ccc(Cl)cc2)NC(=O)NC1c1ccc2c(c1)OCO2` (configuration not stated), the AC50 is 2 µM [rising, full curve].
For `O=C(Cn1cccc1C(=O)c1ccccc1)NCCN1CCCCCC1` the value was 31.6 µM [falling, partial curve, poor fit]; for `COc1cccc(Cn2c(=O)c(-c3cccs3)nc3cnc(N4CCNCC4)nc32)c1`, 2 µM [rising, full curve].
The result for `c1ccc(-c2c3ccccc3nc3[nH]c4ccccc4c23)cc1` reads 12.6 µM [rising, partial curve]; that for `COc1ccccc1CNc1cc(-c2c(C)noc2C)ncn1`, 12.6 µM [rising, single point].
With `Cc1cccc(-c2nnc(SCC#N)n2-c2cccc(Cl)c2)c1`, the AC50 is 25.1 µM [rising, single point].
For `Cc1noc(C)c1-c1nc(N(C)C)c2ccccc2n1` the value was 1 µM [rising, full curve, poor fit].
For `COc1ccccc1CNC(=O)C1CCN(Cc2nc(-c3cccc(Cl)c3)oc2C)CC1` the value was 0.0631 µM [falling, full curve, poor fit]; for `CCOC(=O)Cc1csc(SCc2nc3ccccc3c(=O)[nH]2)n1`, 20 µM [rising, single point].
For `COC(=O)c1cc(CSc2nnc(-c3ccccc3)c(-c3ccccc3)n2)oc1C` the value was 25.1 µM [rising, single point].
`CC(C)CC(NC(=O)C1CCC(C)CC1)C(=O)Nc1cccnc1` (configuration not stated): the AC50 was 7.94 µM [rising, partial curve, poor fit].
Turning to `COc1cccc(CNc2nc3ccccc3n2CCN2CCCCC2)c1OC`, the AC50 is 12.6 µM [rising, single point].
In the case of `CCNc1nc(CC)nc2c1oc1ccccc12`, the AC50 is 1.58 µM [rising, partial curve].
For `COc1ccc(S(=O)(=O)c2ccc(OC)c(OC)c2)cc1OC` the value was 10 µM [rising, partial curve]; for `Cc1noc(C)c1COC(=O)c1ccc2c(c1)S(=O)(=O)c1ccccc1C2=O`, 1.26 µM [rising, full curve].
On to `c1coc(C2Nc3ccccc3-c3nc4ccccc4n32)c1` (configuration not stated), for which the concentration at half-maximal activity (AC50) is 10 µM [rising, partial curve].
The result for `COc1ccc(S(=O)(=O)N2CCN(CC(=O)Nc3cccc(F)c3)CC2)cc1` reads 0.316 µM [rising, full curve, poor fit]; that for `CN1CCN(c2nc(-c3cccnc3)nc3ccccc23)CC1`, 10 µM [rising, partial curve] and 15.8 µM [rising, single point]; that for `COc1cc(C2c3c(oc4c(C)cc(C)cc4c3=O)C(=O)N2Cc2cccnc2)cc(OC)c1OC` (configuration not stated), 25.1 µM [rising, single point].
The result for `CCOC(=O)c1nc(-c2ccc3c(c2)OCO3)[nH]c1C` reads 10 µM [rising, partial curve].
The result for `Cc1onc(-c2ccccc2Cl)c1C(=O)N1CCN(c2cccc(Cl)c2)CC1` reads 0.501 µM [rising, partial curve]; that for `Cn1nc(C(=O)N2CCN(S(=O)(=O)c3ccccc3)CC2)c2ccccc2c1=O`, 0.02 µM [falling, full curve, poor fit]; that for `O=c1c(-c2ccccc2)nc2cnc(Nc3ccccc3)nc2n1Cc1cccs1`, 2.51 µM [rising, full curve].
For the compound `N#CCCn1c(=O)cnc2cnc(Nc3ccccc3)nc21`, the AC50 is 6.31 µM [rising, partial curve].
Turning to `CCOC(=O)C1=C(N)n2c(s/c(=C/c3ccco3)c2=O)=C(C(=O)OC)C1c1ccco1` (configuration not stated), the AC50 was 1.58 µM [rising, full curve].
The result for `COc1ccc2[nH]c3nc(SC(C)C)nnc3c2c1` reads 10 µM [rising, partial curve].
The result for `Cc1cc(-c2nc3ccccc3o2)c2ccccc2n1` reads 10 µM [rising, single point]; that for `CC(C)C(C(=O)C=[N+]=[N-])N1C(=O)c2ccccc2C1=O` (configuration not stated), 3.16 µM [rising, single point].
The result for `CCN(CC)C(=O)CSc1nc2ccccc2c(=O)n1-c1cccc(OC)c1` reads 3.16 µM [rising, full curve].
For the compound `O=C(CCC1(C(=O)O)CCC(=O)NC1)NCc1ccccc1` (configuration not stated), the AC50 is 0.158 µM [falling, full curve, poor fit].
On to `CCc1nnc(NC(=O)CCN2C(=O)CCC2=O)s1`, for which the AC50 is 0.316 µM [rising, partial curve, poor fit].
For `CN(C)c1ncc2nc(-c3ccccc3)c(=O)n(C3CC3)c2n1`, the AC50 is 10 µM [rising, partial curve].
As for `Cc1ccc(S(=O)(=O)N(C)Cc2nc(-c3ccccn3)no2)cc1`, the AC50 was 10 µM [falling, partial curve].
The result for `O=C(CC(=O)N1CCN(c2ccccn2)CC1)Nc1ccc2nc3n(c(=O)c2c1)CCCCC3` reads 6.31 µM [rising, partial curve].
Regarding `COc1cc2cc(Oc3ccc4ccc(=O)oc4c3)c(=O)oc2cc1O`, the AC50 is 25.1 µM [rising, partial curve].
For `CCOC(=O)Cn1c(CN2CCN(c3cccc(Cl)c3)CC2)nc2c1c(=O)[nH]c(=O)n2C` the value was 10 µM [rising, partial curve]; for `Cc1nn(C)c(C)c1S(=O)(=O)NCc1cccs1`, 3.98 µM [falling, full curve, poor fit].
The result for `COc1cc2c(cc1O)CCC1C2CC[C@@]2(C)C1CC[C@@H]2O` (some centres not stated) reads 12.6 µM [rising, partial curve].
With `C=CCNS(=O)(=O)c1ncnc2nc[nH]c12`, the AC50 is 0.000794 µM [falling, full curve, poor fit].
For `O=C(c1ccccc1)c1ccc2nc[nH]c2c1` the value was 2 µM [falling, partial curve]; for `O=C(O)C1C2C=CC(C2)C1C(=O)N1CCOCC1` (configuration not stated), 0.316 µM [falling, partial curve].
For `Cc1ccc(C2C(C#N)=C(N)Oc3nc(-c4ccccc4)[nH]c32)o1` (configuration not stated), the AC50 is 20 µM [falling, partial curve, poor fit].
For `c1ccc(N2CCN(c3ccccc3)C2c2cccs2)cc1` the value was 25.1 µM [falling, single point]; for `COc1ccccc1-c1nc(-c2ccc(C)nc2OC)no1`, 1.26 µM [rising, full curve, poor fit]; for `CCn1nnc(-c2ccccc2NC(=O)c2cc(OC)cc(OC)c2)n1`, 3.16 µM [rising, full curve].
For `c1cncc(CNc2nc(-c3ccoc3)nc3ccccc23)c1` the value was 3.98 µM [rising, full curve]; for `CS(=O)(=O)Nc1cccc(-c2nc(Nc3ccncc3)c3ccccc3n2)c1`, 5.01 µM [rising, partial curve]; for `Cc1sc2nc3c4ccccc4c(NCc4ccco4)nn3c(=O)c2c1C`, 25.1 µM [falling, single point].
Consider `Cn1cc(-c2nc3cnc(N4CCNCC4)nc3n(-c3ccccc3)c2=O)c2ccccc21`, for which the AC50 is 10 µM [rising, partial curve].
For `COCCCNc1nc2ccccc2nc1NS(=O)(=O)c1cccs1` the value was 15.8 µM [rising, single point].
The result for `CN(C)CCCN1c2ccccc2Sc2ccccc21` reads 12.6 µM [falling, single point]; that for `CCCCN(CCCNC(=O)C1CCN(S(=O)(=O)CC)CC1)c1ccccc1`, 25.1 µM [falling, single point]; that for `Cn1c(=O)c2c(nc(SCc3cccnc3)n2Cc2ccccc2)n(C)c1=O`, 10 µM [rising, partial curve].
The result for `Cc1ccc(C(=O)N2CCCC(c3nc4c(nnn4Cc4ccccc4)c(=O)[nH]3)C2)cc1` (configuration not stated) reads 12.6 µM [rising, partial curve]; that for `CCOC(=O)c1c(NC(=O)C(F)(OC)C(F)(F)F)sc2c1CCN(C)C2` (configuration not stated), 10 µM [rising, partial curve]; that for `O=C(c1ccco1)N1CCN(C(=O)c2snc3ccc(Cl)cc23)CC1`, 5.01 µM [falling, single point].
Consider `Cc1cccc(-n2ncc3c(NCc4cccs4)ncnc32)c1`, for which the AC50 is 25.1 µM [rising, single point].
As for `CCOC(=O)C1=C(C)NC(=O)NC1c1ccc(OC(=O)c2ccco2)c(OC)c1` (configuration not stated), the concentration at half-maximal activity (AC50) is 1 µM [rising, partial curve, poor fit].
For `CCOc1cccc(Oc2ccc(C(F)(F)F)cn2)c1` the value was 25.1 µM [rising, single point]; for `COc1ccc(-n2c(=O)c(C)nc3cnc(Oc4ccccc4)nc32)cc1`, 2.51 µM [rising, full curve]; for `COC(=O)c1ccc2ccn(CC(=O)NC(C)C)c2c1`, 0.00316 µM [falling, full curve, poor fit].
The result for `Cc1cc(C(=O)Nc2c(C)nn(Cc3c(Cl)cccc3Cl)c2C)no1` reads 0.0251 µM [falling, partial curve, poor fit]; that for `COc1ccc(CCNc2ncnc3c2oc2ccccc23)cc1OC`, 12.6 µM [falling, single point]; that for `Cc1nc2cnc(N3CCNCC3)nc2n(C2CC2)c1=O`, 12.6 µM [rising, partial curve].
For `Cc1ccc2cc(CN(Cc3ccco3)C(=O)c3cccs3)c(=O)[nH]c2c1`, the AC50 was 6.31 µM [falling, partial curve].
For `COc1ccc(-c2nnn(CC(=O)c3c[nH]c4ccccc34)n2)cc1OC` the value was 12.6 µM [rising, partial curve].

Source of the values: PubChem BioAssay AID662 (National Center for Advancing Translational Sciences (NCATS), 2007).
